The values that follow come from paper PMC5133869.

By UniProt entry, the sequences of proteins in these tests, tags left out. Where a name states a change or a piece, a line headed by the entry shows the natural chain unless it says otherwise.
UniProt P01375: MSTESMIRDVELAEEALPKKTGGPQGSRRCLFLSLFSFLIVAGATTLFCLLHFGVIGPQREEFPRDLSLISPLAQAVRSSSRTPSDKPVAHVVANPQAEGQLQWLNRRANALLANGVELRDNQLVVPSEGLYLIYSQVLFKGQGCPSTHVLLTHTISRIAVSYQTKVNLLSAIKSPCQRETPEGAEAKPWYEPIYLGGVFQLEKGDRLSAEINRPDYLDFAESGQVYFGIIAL
UniProt Q9Y6D6: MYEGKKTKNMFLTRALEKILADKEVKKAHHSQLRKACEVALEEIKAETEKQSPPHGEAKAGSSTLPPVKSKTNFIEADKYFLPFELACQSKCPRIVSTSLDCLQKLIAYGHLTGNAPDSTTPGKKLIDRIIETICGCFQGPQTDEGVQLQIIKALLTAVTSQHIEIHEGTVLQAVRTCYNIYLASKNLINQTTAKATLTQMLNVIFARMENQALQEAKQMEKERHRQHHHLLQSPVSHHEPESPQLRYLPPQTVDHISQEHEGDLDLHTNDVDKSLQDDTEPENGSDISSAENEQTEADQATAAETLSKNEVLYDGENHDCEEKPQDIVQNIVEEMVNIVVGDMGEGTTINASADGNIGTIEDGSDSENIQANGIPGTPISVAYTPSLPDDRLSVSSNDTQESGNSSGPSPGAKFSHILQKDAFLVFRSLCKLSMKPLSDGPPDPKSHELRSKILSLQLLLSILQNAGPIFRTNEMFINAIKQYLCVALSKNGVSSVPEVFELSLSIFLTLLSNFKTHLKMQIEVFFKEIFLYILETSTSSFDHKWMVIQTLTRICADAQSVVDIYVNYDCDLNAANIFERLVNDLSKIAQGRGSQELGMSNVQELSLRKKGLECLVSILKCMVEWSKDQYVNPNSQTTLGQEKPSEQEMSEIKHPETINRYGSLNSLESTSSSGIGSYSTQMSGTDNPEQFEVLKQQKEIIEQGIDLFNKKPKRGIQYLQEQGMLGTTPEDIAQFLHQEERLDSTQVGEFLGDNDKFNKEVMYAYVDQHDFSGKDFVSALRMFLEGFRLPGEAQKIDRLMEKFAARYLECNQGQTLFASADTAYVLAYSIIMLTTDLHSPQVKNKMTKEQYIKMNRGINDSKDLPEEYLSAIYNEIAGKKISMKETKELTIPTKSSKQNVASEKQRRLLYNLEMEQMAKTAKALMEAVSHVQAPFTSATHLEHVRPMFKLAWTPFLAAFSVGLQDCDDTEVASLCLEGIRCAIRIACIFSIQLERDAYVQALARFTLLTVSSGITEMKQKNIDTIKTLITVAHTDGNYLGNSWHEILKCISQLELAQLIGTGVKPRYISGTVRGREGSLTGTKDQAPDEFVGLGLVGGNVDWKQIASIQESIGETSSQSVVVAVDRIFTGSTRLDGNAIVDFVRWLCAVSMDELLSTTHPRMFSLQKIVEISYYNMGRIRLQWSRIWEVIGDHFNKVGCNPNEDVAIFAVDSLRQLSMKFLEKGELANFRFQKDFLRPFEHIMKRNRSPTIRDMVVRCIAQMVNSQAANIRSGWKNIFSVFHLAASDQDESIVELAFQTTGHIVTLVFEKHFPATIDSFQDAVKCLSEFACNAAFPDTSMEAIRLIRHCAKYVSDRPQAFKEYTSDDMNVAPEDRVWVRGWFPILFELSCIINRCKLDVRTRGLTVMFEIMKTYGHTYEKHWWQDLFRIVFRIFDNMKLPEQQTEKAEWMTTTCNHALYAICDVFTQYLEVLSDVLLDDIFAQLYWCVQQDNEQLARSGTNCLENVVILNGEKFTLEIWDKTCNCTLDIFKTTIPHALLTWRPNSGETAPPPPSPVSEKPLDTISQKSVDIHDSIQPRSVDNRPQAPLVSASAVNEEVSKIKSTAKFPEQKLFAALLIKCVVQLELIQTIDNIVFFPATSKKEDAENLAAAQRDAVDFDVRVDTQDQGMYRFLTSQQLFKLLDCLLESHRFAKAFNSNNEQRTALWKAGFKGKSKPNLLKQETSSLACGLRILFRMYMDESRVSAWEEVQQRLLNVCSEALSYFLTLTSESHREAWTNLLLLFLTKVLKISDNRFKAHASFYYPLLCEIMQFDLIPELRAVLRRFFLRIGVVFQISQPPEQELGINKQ

This assay concerns the target DYKDDDDK (FLAG)-TNF-α (UniProt P01375). In words: co-IP; complex I analysis: HT1080 cells stimulated with 2 μg/mL FLAG-TNF-α for the indicated times, lysed in 20 mM Tris-HCl pH 7.4, 150 mM NaCl, 0.2% Nonidet P40, 10% glycerol; anti-FLAG M2 magnetic beads 4 h at 4 °C, five washes, immunoblotting; control or BIG1 siRNA in Figure 5D; only the target …. Background: A western blot detects proteins with antibodies after separation by electrophoresis.

No constants are given. Whether binding was seen depends on the method and setting. Binding seen in cells or lysates may run through a third protein.

In the case of “Brefeldin A-inhibited guanine nucleotide-exchange factor 1 (from UniProt Q9Y6D6 1-1849)”, the binding result is on record as “no binding”.
